Among the data in patent US20130090457A1 are binding values, retold here.

The chains behind the UniProt entries cited, without tags or fusion partners. Where a name states a change or a piece, a line headed by the entry shows the natural chain unless it says otherwise.
UniProt Q99MB1: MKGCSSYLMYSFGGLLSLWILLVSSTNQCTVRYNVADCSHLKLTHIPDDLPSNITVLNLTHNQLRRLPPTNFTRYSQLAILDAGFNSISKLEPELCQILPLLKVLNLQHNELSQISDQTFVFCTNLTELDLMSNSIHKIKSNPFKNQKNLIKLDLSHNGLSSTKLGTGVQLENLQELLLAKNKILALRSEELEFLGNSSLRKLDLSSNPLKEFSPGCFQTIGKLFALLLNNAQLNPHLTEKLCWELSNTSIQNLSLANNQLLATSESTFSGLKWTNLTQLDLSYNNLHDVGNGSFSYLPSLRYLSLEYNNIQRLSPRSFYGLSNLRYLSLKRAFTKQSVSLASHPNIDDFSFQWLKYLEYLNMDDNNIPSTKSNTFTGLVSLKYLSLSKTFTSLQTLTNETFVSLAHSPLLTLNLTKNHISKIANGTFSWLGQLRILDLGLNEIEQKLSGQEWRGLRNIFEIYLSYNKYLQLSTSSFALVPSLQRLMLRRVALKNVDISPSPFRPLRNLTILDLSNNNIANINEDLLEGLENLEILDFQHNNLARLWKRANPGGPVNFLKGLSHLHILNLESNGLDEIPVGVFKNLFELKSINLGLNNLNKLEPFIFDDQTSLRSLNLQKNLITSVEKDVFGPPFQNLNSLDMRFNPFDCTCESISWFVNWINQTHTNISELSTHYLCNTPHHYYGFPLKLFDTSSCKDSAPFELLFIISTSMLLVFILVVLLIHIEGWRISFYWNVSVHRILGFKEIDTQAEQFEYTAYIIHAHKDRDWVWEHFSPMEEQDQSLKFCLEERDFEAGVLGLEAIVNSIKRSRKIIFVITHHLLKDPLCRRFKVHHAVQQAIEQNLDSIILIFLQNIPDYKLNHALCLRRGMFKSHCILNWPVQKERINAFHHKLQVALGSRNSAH

Results are given in words; binding and its absence hold for the method and conditions named. Some entries that bind do so weakly or less than the wild type.

Assay [1] has as its target full-length murine TLR3 on cells (mouse) (UniProt Q99MB1). Briefly: flow cytometry, surface staining of thioglycollate-elicited peritoneal macrophages of C57BL/6 versus TLR3KO mice with Alexa-Fluor 647 conjugated mAb c1811. For orientation: In flow cytometry, cells or beads pass a laser one at a time.
For assay [2] the target is unchanged. Briefly: flow cytometry, surface staining of peritoneal macrophages.

B1: mAb c1811 (antibody, mouse IgG1, kappa, V domains shown)
VH: EVQLVASGGGLVKPGASLKLSCVASGFTFSDYWMAWVRQTPGKPMEYIGDIKSDGSKVNYAPSLKNRFTISRDNARTTLYLQMSNVRSEDTATYYCNRDIGPDWYFDFWGPGTMVTVSS
VL: DIQMTQSPTSLSASLGETVTIECRASEDIYNGLAWYQQKPGKSPQLLIYDSNSLHTGVPSRFSGRGSGTQYSLRINSLQSEDVASYFCQQYYDYPLTFGSGTKLEIKR
On to B1, for which the binding result in assay [1] and in assay [2] was “binds” each time.
